# Measurements published in the supplement of paper PMC8728848.
# The list shows a part of the results.
# B1: Thrombomodulin Extracellular (Mus musculus), P15306 (protein)
# chain: MLGIFFLGVLAPASLGLSALAKLQPTGSQCVEHECFALFQGPATFLDASQACQRLQGHLMTVRSSVAADVISLLLSQSSMDLGPWIGLQLPQGCDDPVHLGPLRGFQWVTGDNHTSYSRWARPNDQTAPLCGPLCVTVSTATEAAPGEPAWEEKPCETETQGFLCEFYFTASCRPLTVNTRDPEAAHISSTYNTPFGVSGADFQTLPVGSSAAVEPLGLELVCRAPPGTSEGHWAWEATGAWNCSVENGGCEYLCNRSTNEPRCLCPRDMDLQADGRSCARPVVQSCNELCEHFCVSNAEVPGSYSCMCETGYQLAADGHRCEDVDDCKQGPNPCPQLCVNTKGGFECFCYDGYELVDGECVELLDPCFGSNCEFQCQPVSPTDYRCICAPGFAPKPDEPHKCEMFCNETSCPADCDPNSPTVCECPEGFILDEGSVCTDIDECSQGECFTSECRNFPGSYECICGPDTALAGQISKDCDPIPVREDTKEEEGSGEPPVSPTPGSPTGPPSARPVHSGVLIGISIASLSLVVALLALLCHLRKKQGAARAELEYKCASSAKEVVLQHVRTDRTLQKF
# What was measured:
# Assay in all cases: glycan array binding signal (z-score within array); higher = stronger binding
# Details in all cases: glycan notation: IUPAC condensed, linker removed
# [1] = biological target: Neu5Ac(a2-6)Gal(b1-4)GlcNAc(b1-3)Gal(b1-4)GlcNAc(b1-3)GalNAc
# Procedure, shortened: (§1)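 From the Consortium for Functional Glycomics database, 3228 arrays were curated, keeping only those whose protein sequence was available. Binding is given as a within-array Z-score averaged across arrays sharing a protein sequence and across linkers. Negative Z-scores can be read as non-binding.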
# [2] = biological target: Neu5Ac(a2-6)Gal(b1-4)GlcNAc(b1-3)Gal(b1-4)GlcNAc(b1-3)[Neu5Ac(a2-6)Gal(b1-4)GlcNAc(b1-3)Gal(b1-4)GlcNAc(b1-6)]GalNAc
# Procedure, shortened: as §1
# [3] = biological target: Neu5Ac(a2-6)Gal(b1-4)GlcNAc(b1-3)Gal(b1-4)GlcNAc(b1-6)[Gal(b1-3)]GalNAc
# Procedure, shortened: as §1
# [4] = biological target: Neu5Ac(a2-6)Gal(b1-4)GlcNAc(b1-3)Gal(b1-4)[Fuc(a1-3)]GlcNAc(b1-3)Gal(b1-4)[Fuc(a1-3)]GlcNAc
# Procedure, shortened: as §1
# [5] = biological target: Neu5Ac(a2-6)Gal(b1-4)GlcNAc(b1-3)GalNAc
# Procedure, shortened: as §1
# [6] = biological target: Neu5Ac(a2-6)Gal(b1-4)GlcNAc(b1-3)[Neu5Ac(a2-6)Gal(b1-4)GlcNAc(b1-6)]GalNAc
# Procedure, shortened: as §1
# [7] = biological target: Neu5Ac(a2-6)Gal(b1-4)GlcNAc(b1-6)GalNAc
# Procedure, shortened: as §1
# [8] = biological target: Neu5Ac(a2-6)Gal(b1-4)GlcNAc(b1-6)[Gal(b1-3)GlcNAc(b1-3)]Gal(b1-4)Glc
# Procedure, shortened: as §1
# [9] = biological target: Neu5Ac(a2-6)Gal(b1-4)GlcNAc(b1-6)[Gal(b1-3)]GalNAc
# Procedure, shortened: as §1
# [10] = biological target: Neu5Ac(a2-6)Gal(b1-4)GlcNAc6S
# Procedure, shortened: as §1
# Neu5Ac(a2-6)GalNAc = biological target: Neu5Ac(a2-6)GalNAc
# Procedure, shortened: as §1
# [11] = biological target: Neu5Ac(a2-6)GalNAc(b1-4)GlcNAc
# Procedure, shortened: as §1
# [12] = biological target: Neu5Ac(a2-6)GalNAc(b1-4)GlcNAc6S
# Procedure, shortened: as §1
# [13] = biological target: Neu5Ac(a2-6)GlcNAc(b1-4)GlcNAc
# Procedure, shortened: as §1
# [14] = biological target: Neu5Ac(a2-6)GlcNAc(b1-4)GlcNAc(b1-4)GlcNAc
# Procedure, shortened: as §1
# Neu5Ac(a2-8)Neu5Ac = biological target: Neu5Ac(a2-8)Neu5Ac
# Procedure, shortened: as §1
# [15] = biological target: Neu5Ac(a2-8)Neu5Ac(a2-3)Gal(b1-3)GalNAc(b1-4)[Neu5Ac(a2-3)]Gal(b1-4)Glc
# Procedure, shortened: as §1
# [16] = biological target: Neu5Ac(a2-8)Neu5Ac(a2-3)Gal(b1-3)GalNAc(b1-4)[Neu5Ac(a2-8)Neu5Ac(a2-3)]Gal(b1-4)Glc
# Procedure, shortened: as §1
# [17] = biological target: Neu5Ac(a2-8)Neu5Ac(a2-3)Gal(b1-4)Glc
# Procedure, shortened: as §1
# [18] = biological target: Neu5Ac(a2-8)Neu5Ac(a2-3)Gal(b1-4)GlcNAc
# Procedure, shortened: as §1
# [19] = biological target: Neu5Ac(a2-8)Neu5Ac(a2-3)[Gal(b1-3)GalNAc(b1-4)]Gal(b1-4)Glc
# Procedure, shortened: as §1
# [20] = biological target: Neu5Ac(a2-8)Neu5Ac(a2-3)[GalNAc(b1-4)]Gal(b1-4)Glc
# Procedure, shortened: as §1
# [21] = biological target: Neu5Ac(a2-8)Neu5Ac(a2-8)Neu5Ac
# Procedure, shortened: as §1
# [22] = biological target: Neu5Ac(a2-8)Neu5Ac(a2-8)Neu5Ac(a2-3)Gal(b1-4)Glc
# Procedure, shortened: as §1
# [23] = biological target: Neu5Ac(a2-8)Neu5Ac(a2-8)Neu5Ac(a2-3)[Gal(b1-3)GalNAc(b1-4)]Gal(b1-4)Glc
# Procedure, shortened: as §1
# [24] = biological target: Neu5Ac(a2-8)Neu5Ac(a2-8)Neu5Ac(a2-3)[GalNAc(b1-4)]Gal(b1-4)Glc
# Procedure, shortened: as §1
# [25] = biological target: Neu5Ac(a2-8)Neu5Ac(a2-8)Neu5Ac(a2-8)Neu5Ac(a2-3)[GalNAc(b1-4)]Gal(b1-4)Glc
# Procedure, shortened: as §1
# [26] = biological target: Neu5Ac(a2-8)Neu5Gc(a2-3)Gal(b1-4)GlcNAc
# Procedure, shortened: as §1
# [27] = biological target: Neu5Ac(b2-6)Gal(b1-4)GlcNAc
# Procedure, shortened: as §1
# Neu5Ac(b2-6)GalNAc = biological target: Neu5Ac(b2-6)GalNAc
# Procedure, shortened: as §1
# [28] = biological target: Neu5Ac9Ac(a2-3)Gal(b1-3)GlcNAc
# Procedure, shortened: as §1
# [29] = biological target: Neu5Ac9Ac(a2-3)Gal(b1-4)GlcNAc
# Procedure, shortened: as §1
# [30] = biological target: Neu5Ac9Ac(a2-6)Gal(b1-4)GlcNAc
# Procedure, shortened: as §1
# [31] = biological target: Neu5Gc(a2-3)Gal(b1-3)GlcNAc
# Procedure, shortened: as §1
# [32] = biological target: Neu5Gc(a2-3)Gal(b1-3)[Fuc(a1-4)]GlcNAc
# Procedure, shortened: as §1
# Neu5Gc(a2-3)Gal(b1-4)Glc = biological target: Neu5Gc(a2-3)Gal(b1-4)Glc
# Procedure, shortened: as §1
# [33] = biological target: Neu5Gc(a2-3)Gal(b1-4)GlcNAc
# Procedure, shortened: as §1
# [34] = biological target: Neu5Gc(a2-3)Gal(b1-4)GlcNAc(b1-3)Gal(b1-4)GlcNAc(b1-2)Man(a1-3)[Neu5Gc(a2-3)Gal(b1-4)GlcNAc(b1-3)Gal(b1-4)GlcNAc(b1-2)Man(a1-6)]Man(b1-4)GlcNAc(b1-4)GlcNAc
# Procedure, shortened: as §1
# [35] = biological target: Neu5Gc(a2-3)Gal(b1-4)[Fuc(a1-3)]GlcNAc
# Procedure, shortened: as §1
# [36] = biological target: Neu5Gc(a2-6)Gal(b1-4)GlcNAc
# Procedure, shortened: as §1
# Neu5Gc(a2-6)GalNAc = biological target: Neu5Gc(a2-6)GalNAc
# Procedure, shortened: as §1
# [37] = biological target: Neu5Gc(a2-8)Neu5Ac(a2-3)Gal(b1-4)GlcNAc
# Procedure, shortened: as §1
# [38] = biological target: Neu5Gc(a2-8)Neu5Gc(a2-3)Gal(b1-4)GlcNAc
# Procedure, shortened: as §1
# [39] = biological target: Neu5Gc(a2-8)Neu5Gc(a2-3)Gal(b1-4)GlcNAc(b1-3)Gal(b1-4)GlcNAc
# Procedure, shortened: as §1
# [40] = biological target: Neu5Gc(a2-8)Neu5Gc(a2-6)Gal(b1-4)GlcNAc
# Procedure, shortened: as §1
# [41] = biological target: Neu5Gc(b2-6)Gal(b1-4)GlcNAc
# Procedure, shortened: as §1
binder,measurement,setting,value
B1,glycan array binding signal (z-score),[1],1.04
same,glycan array binding signal (z-score),[2],0.769
same,glycan array binding signal (z-score),[3],0.53
same,glycan array binding signal (z-score),[4],-0.473
same,glycan array binding signal (z-score),[5],-0.577
same,glycan array binding signal (z-score),[6],0.106
same,glycan array binding signal (z-score),[7],1.06
same,glycan array binding signal (z-score),[8],2.01
same,glycan array binding signal (z-score),[9],-1.23
same,glycan array binding signal (z-score),[10],-1.45
same,glycan array binding signal (z-score),Neu5Ac(a2-6)GalNAc,-1.01
same,glycan array binding signal (z-score),[11],-1.52
same,glycan array binding signal (z-score),[12],-1.36
same,glycan array binding signal (z-score),[13],0.044
same,glycan array binding signal (z-score),[14],0.539
same,glycan array binding signal (z-score),Neu5Ac(a2-8)Neu5Ac,-0.374
same,glycan array binding signal (z-score),[15],-0.487
same,glycan array binding signal (z-score),[16],1.32
same,glycan array binding signal (z-score),[17],-1.26
same,glycan array binding signal (z-score),[18],0.47
same,glycan array binding signal (z-score),[19],-0.212
same,glycan array binding signal (z-score),[20],0.728
same,glycan array binding signal (z-score),[21],0.327
same,glycan array binding signal (z-score),[22],0.716
same,glycan array binding signal (z-score),[23],2.49
same,glycan array binding signal (z-score),[24],0.97
same,glycan array binding signal (z-score),[25],-1.38
same,glycan array binding signal (z-score),[26],0.127
same,glycan array binding signal (z-score),[27],-1.64
same,glycan array binding signal (z-score),Neu5Ac(b2-6)GalNAc,-0.138
same,glycan array binding signal (z-score),[28],-0.71
same,glycan array binding signal (z-score),[29],1.04
same,glycan array binding signal (z-score),[30],0.314
same,glycan array binding signal (z-score),[31],-0.444
same,glycan array binding signal (z-score),[32],0.091
same,glycan array binding signal (z-score),Neu5Gc(a2-3)Gal(b1-4)Glc,-1.28
same,glycan array binding signal (z-score),[33],-0.533
same,glycan array binding signal (z-score),[34],1.29
same,glycan array binding signal (z-score),[35],0.216
same,glycan array binding signal (z-score),[36],0.137
same,glycan array binding signal (z-score),Neu5Gc(a2-6)GalNAc,-0.261
same,glycan array binding signal (z-score),[37],0.52
same,glycan array binding signal (z-score),[38],1.87
same,glycan array binding signal (z-score),[39],-2.09
same,glycan array binding signal (z-score),[40],-1.45
same,glycan array binding signal (z-score),[41],-0.009

# 9 successive entries out of the list so far, quoted:
binder,measurement,setting,value
B1,glycan array binding signal (z-score),[17],-1.26
same,glycan array binding signal (z-score),[18],0.47
same,glycan array binding signal (z-score),[19],-0.212
same,glycan array binding signal (z-score),[20],0.728
same,glycan array binding signal (z-score),[21],0.327
same,glycan array binding signal (z-score),[22],0.716
same,glycan array binding signal (z-score),[23],2.49
same,glycan array binding signal (z-score),[24],0.97
same,glycan array binding signal (z-score),[25],-1.38
